Measurements reported in PubChem BioAssay AID504764 (Drosophila RNAi Screening Center, 2011).

Test: 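Genome-wide screen for regulators of Notch-driven gene expression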 (primary screen)
Cells: Drosophila Kc167 cells
Reagents: long dsRNA against Drosophila genes
Timing: about 5 days (4 days dsRNA, then 24 h after transfection)
Conditions: transfection of constitutively active membrane-tethered Notch lacking the extracellular domain, read 24 h later
Measured: 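Light from a Notch-responsive E(spl)m3 luciferase reporter under active Notch, with control-promoter and no-Notch reporter wells to normalise; raw counts from paired wells a and b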
Direction: induced reporter light, run 1, well a and induced reporter light, run 1, well b: higher = more light from the Notch target reporter with active Notch; control promoter light, run 1, well a and control promoter light, run 1, well b: higher = more light from the viral control promoter (cell number, transfection, viability); uninduced reporter light, run 1, well a: higher = more light from the Notch target reporter without active Notch
Call rule: 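Hit if the duplicate-averaged log2 ratio of induced to control-promoter light gives a plate-wise z beyond ±2, or induced to uninduced beyond ±1.8; weak-control or discordant-duplicate wells dropped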
Meaning of the calls: active = modifier hit (raised or lowered Notch signal); inactive = not a hit
In all, the deposit lists about 22,000 reagents; this is a random part of those with a known target gene and a result. Of all reagents, 403 (1.9%) are marked active. 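Unnormalised raw counts per well; ratio z-scores behind the hit calls and whether each hit raises or lowers signal are not deposited.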 Unmarked entries are inactive. A plus sign joins genes that one reagent is predicted to hit. The record does not give: the amount of reagent.

CG8191 + CG12379 → induced reporter light, run 1, well a = 1.56e5; induced reporter light, run 1, well b = 1.56e5; control promoter light, run 1, well a = 1.40e5; control promoter light, run 1, well b = 1.41e5; uninduced reporter light, run 1, well a = 12875
CG11498 (GeneID 43585) → induced reporter light, run 1, well a = 1.33e5; induced reporter light, run 1, well b = 1.59e5; control promoter light, run 1, well a = 1.72e5; control promoter light, run 1, well b = 1.68e5; uninduced reporter light, run 1, well a = 10655
Aladin (GeneID 31881) → induced reporter light, run 1, well a = 1.93e5; induced reporter light, run 1, well b = 1.64e5; control promoter light, run 1, well a = 1.96e5; control promoter light, run 1, well b = 2.23e5; uninduced reporter light, run 1, well a = 11965
CG33992 (retired record) + CG43755 → induced reporter light, run 1, well a = 99455; induced reporter light, run 1, well b = 76140; control promoter light, run 1, well a = 1.16e5; control promoter light, run 1, well b = 1.16e5; uninduced reporter light, run 1, well a = 6355
CG11018 (GeneID 37259) → induced reporter light, run 1, well a = 1.15e5; induced reporter light, run 1, well b = 1.27e5; control promoter light, run 1, well a = 2.42e5; control promoter light, run 1, well b = 2.49e5; uninduced reporter light, run 1, well a = 9970
CG9822 (GeneID 37440) → induced reporter light, run 1, well a = 79110; induced reporter light, run 1, well b = 46695; control promoter light, run 1, well a = 50530; control promoter light, run 1, well b = 66685; uninduced reporter light, run 1, well a = 2720

Continued; the last 2 above are carried over.
CG11018 (GeneID 37259) → induced reporter light, run 1, well a = 1.15e5; induced reporter light, run 1, well b = 1.27e5; control promoter light, run 1, well a = 2.42e5; control promoter light, run 1, well b = 2.49e5; uninduced reporter light, run 1, well a = 9970
CG9822 (GeneID 37440) → induced reporter light, run 1, well a = 79110; induced reporter light, run 1, well b = 46695; control promoter light, run 1, well a = 50530; control promoter light, run 1, well b = 66685; uninduced reporter light, run 1, well a = 2720
CG3679 (GeneID 32591) → induced reporter light, run 1, well a = 1.79e5; induced reporter light, run 1, well b = 1.79e5; control promoter light, run 1, well a = 2.07e5; control promoter light, run 1, well b = 1.96e5; uninduced reporter light, run 1, well a = 13765
TMEM216 (GeneID 41035) → induced reporter light, run 1, well a = 1.05e5; induced reporter light, run 1, well b = 1.25e5; control promoter light, run 1, well a = 98475; control promoter light, run 1, well b = 73720; uninduced reporter light, run 1, well a = 12000
Adgf-C (GeneID 41680) → induced reporter light, run 1, well a = 1.79e5; induced reporter light, run 1, well b = 2.26e5; control promoter light, run 1, well a = 2.00e5; control promoter light, run 1, well b = 2.02e5; uninduced reporter light, run 1, well a = 18700
Pgam5 (GeneID 31143) → induced reporter light, run 1, well a = 1.83e5; induced reporter light, run 1, well b = 2.17e5; control promoter light, run 1, well a = 3.05e5; control promoter light, run 1, well b = 2.93e5; uninduced reporter light, run 1, well a = 13900
CG13044 (GeneID 39795) → induced reporter light, run 1, well a = 1.16e5; induced reporter light, run 1, well b = 95800; control promoter light, run 1, well a = 1.51e5; control promoter light, run 1, well b = 1.47e5; uninduced reporter light, run 1, well a = 6920
CG5280 (GeneID 39033) → induced reporter light, run 1, well a = 1.77e5; induced reporter light, run 1, well b = 1.54e5; control promoter light, run 1, well a = 1.97e5; control promoter light, run 1, well b = 1.59e5; uninduced reporter light, run 1, well a = 12425
